Measured values published in US20220259297A1.
Results are given in words; binding and its absence hold for the method and conditions named. Some entries that bind do so weakly or less than the wild type. Sequences can lack the tags named with a protein. Blank lines part the entries; values can stand above or below the binder they belong to.

Protein sequences, listed by entry. Tags and fused reporters are not part of them. Residues count along the entry.
UniProt P22004, residues 382-513: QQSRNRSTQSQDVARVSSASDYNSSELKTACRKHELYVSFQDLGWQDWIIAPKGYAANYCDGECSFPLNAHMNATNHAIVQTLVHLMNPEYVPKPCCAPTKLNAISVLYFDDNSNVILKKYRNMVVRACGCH
UniProt P22003, residues 317-454: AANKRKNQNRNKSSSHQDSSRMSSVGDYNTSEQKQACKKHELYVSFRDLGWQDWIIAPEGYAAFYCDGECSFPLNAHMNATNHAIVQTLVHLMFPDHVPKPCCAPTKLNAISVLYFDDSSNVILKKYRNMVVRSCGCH

Columns and labels:
[1] = target: T1, BMP15 (UniProt O95972); test: Biacore (SPR), ligands ranked by off-rate koff
T1 sequence (looked up): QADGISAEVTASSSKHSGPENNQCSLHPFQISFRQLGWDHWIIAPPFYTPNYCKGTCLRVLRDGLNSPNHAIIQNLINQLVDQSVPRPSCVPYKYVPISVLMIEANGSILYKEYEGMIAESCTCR

[2] = target: T2, BMP10 (UniProt O95393); test: Biacore (SPR), ligands ranked by off-rate koff
T2 sequence (looked up): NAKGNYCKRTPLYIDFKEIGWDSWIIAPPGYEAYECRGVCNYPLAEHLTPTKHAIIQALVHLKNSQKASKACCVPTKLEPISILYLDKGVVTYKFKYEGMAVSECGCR

[3] = target: T2, BMP10; test: SPR (Biacore), FIG. 53
[4] = target: T3, GDF11 (UniProt O95390); test: SPR (Biacore), FIG. 12
T3 sequence (looked up): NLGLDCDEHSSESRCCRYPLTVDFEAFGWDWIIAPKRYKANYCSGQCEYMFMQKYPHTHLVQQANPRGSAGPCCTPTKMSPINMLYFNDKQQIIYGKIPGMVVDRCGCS

[5] = target: T4, GDF8 (UniProt O14793); test: SPR (Biacore), FIG. 12
T4 sequence (looked up): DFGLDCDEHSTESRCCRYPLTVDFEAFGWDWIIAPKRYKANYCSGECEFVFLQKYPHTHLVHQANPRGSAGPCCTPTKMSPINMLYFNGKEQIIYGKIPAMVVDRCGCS

[6] = target: BMP6 (UniProt P22004); test: SPR (Biacore), FIG. 12
[7] = target: T3, GDF11; test: SPR (Biacore)
[8] = target: T2, BMP10; test: SPR (Biacore)
[9] = target: T5, BMP9 (UniProt Q9UK05); test: SPR (Biacore)
T5 sequence (looked up): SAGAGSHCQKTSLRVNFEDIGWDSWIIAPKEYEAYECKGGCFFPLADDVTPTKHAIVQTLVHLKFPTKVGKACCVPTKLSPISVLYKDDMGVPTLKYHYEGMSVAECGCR

[10] = target: BMP5 (UniProt P22003); test: SPR (Biacore)
[11] = target: T6, GDF3 (UniProt Q9NR23); test: SPR (Biacore)
T6 sequence (looked up): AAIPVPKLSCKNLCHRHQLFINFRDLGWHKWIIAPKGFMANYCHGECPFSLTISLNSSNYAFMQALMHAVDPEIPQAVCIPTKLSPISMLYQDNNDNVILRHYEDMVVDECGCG

[12] = target: T4, GDF8; test: SPR (Biacore)
[13] = target: T7, activin B (UniProt P09529); test: SPR (Biacore)
T7 sequence (looked up): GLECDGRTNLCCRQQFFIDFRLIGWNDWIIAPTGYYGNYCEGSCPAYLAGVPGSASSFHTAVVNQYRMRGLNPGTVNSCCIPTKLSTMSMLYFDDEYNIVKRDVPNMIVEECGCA

[14] = target: BMP6 (UniProt P22004); test: SPR (Biacore)
[15] = target: T3, GDF11; test: SPR (Biacore), FIG. 15
[16] = target: T2, BMP10; test: SPR (Biacore), FIG. 15
[17] = target: T5, BMP9; test: SPR (Biacore), FIG. 15
[18] = target: BMP5 (UniProt P22003); test: SPR (Biacore), FIG. 15
[19] = target: T6, GDF3; test: SPR (Biacore), FIG. 15
[20] = target: T4, GDF8; test: SPR (Biacore), FIG. 15
[21] = target: T7, activin B; test: SPR (Biacore), FIG. 15
[22] = target: BMP6 (UniProt P22004); test: SPR (Biacore), FIG. 15
[23] = target: GDF8, O14793; test: Biacore (SPR), ligands ranked by off-rate koff; settings: remark: other sources report otherwise

binding [1]: binds
binding [2]: binds
binding [3]: binds
B1: BMPRII-Fc homodimer (Fc fusion, not shown: a dimerising Fc or GST)
chain: SQNQERLCAFKDPYQQDLGIGESRISHENGTILCSKGSTCYGLWEKSKGDINLVKQGCWSHIGDPQECHYEECVVTTTPPSIQNGTYRFCCCSTDLCNVNFTENFPPPDTTPLSPPHSFNRDET

binding [4]: binds
binding [5]: binds
binding [6]: binds
binding [7]: binds
binding [8]: binds
binding [9]: binds
binding [10]: binds
binding [11]: binds
binding [12]: binds
binding [13]: binds
binding [14]: binds
binding [15]: binds
binding [16]: binds
binding [17]: binds
binding [18]: binds
binding [19]: binds
binding [20]: binds
binding [21]: binds
binding [22]: binds
B2: ActRIIB-Fc homodimer (Fc fusion, not shown: a dimerising Fc or GST)
chain: SGRGEAETRECIYYNANWELERTNQSGLERCEGEQDKRLHCYASWRNSSGTIELVKKGCWLDDFNCYDRQECVATEENPQVYFCCCEGNFCNERFTHLPEAGGPEVTYEPPPTAPTLLT

binding [23]: binds
B3: ALK4-Fc homodimer, P36896 24-126 (Fc fusion, not shown: a dimerising Fc or GST)
chain: SGPRGVQALLCACTSCLQANYTCETDGACMVSIFNLDGMEHHVRTCIPKVELVPAGKPFYCLSSEDLRNTHCCYTDYCNRIDLRVPSGHLKEPEHPSMWGPVE
